Experiment [1] deals with Nup153 (human (endogenous in Jurkat and HEK293T)) (UniProt P49790). Nature of the experiment: proximity ligation.
For experiment [2] the target is unchanged. As to the kind of experiment: proximity ligation. This is another data set of the same source.
The target of experiment [3] is Nup98 (human (endogenous in Jurkat)) (UniProt P52948). As to the kind of experiment: proximity ligation.
Experiment [4] has as its target eGFP:Nup153 (UniProt P49790). Nature of the experiment: co-IP.

By UniProt entry, the sequences of proteins in these tests, tags left out. Residues count along the entry.
UniProt P49790: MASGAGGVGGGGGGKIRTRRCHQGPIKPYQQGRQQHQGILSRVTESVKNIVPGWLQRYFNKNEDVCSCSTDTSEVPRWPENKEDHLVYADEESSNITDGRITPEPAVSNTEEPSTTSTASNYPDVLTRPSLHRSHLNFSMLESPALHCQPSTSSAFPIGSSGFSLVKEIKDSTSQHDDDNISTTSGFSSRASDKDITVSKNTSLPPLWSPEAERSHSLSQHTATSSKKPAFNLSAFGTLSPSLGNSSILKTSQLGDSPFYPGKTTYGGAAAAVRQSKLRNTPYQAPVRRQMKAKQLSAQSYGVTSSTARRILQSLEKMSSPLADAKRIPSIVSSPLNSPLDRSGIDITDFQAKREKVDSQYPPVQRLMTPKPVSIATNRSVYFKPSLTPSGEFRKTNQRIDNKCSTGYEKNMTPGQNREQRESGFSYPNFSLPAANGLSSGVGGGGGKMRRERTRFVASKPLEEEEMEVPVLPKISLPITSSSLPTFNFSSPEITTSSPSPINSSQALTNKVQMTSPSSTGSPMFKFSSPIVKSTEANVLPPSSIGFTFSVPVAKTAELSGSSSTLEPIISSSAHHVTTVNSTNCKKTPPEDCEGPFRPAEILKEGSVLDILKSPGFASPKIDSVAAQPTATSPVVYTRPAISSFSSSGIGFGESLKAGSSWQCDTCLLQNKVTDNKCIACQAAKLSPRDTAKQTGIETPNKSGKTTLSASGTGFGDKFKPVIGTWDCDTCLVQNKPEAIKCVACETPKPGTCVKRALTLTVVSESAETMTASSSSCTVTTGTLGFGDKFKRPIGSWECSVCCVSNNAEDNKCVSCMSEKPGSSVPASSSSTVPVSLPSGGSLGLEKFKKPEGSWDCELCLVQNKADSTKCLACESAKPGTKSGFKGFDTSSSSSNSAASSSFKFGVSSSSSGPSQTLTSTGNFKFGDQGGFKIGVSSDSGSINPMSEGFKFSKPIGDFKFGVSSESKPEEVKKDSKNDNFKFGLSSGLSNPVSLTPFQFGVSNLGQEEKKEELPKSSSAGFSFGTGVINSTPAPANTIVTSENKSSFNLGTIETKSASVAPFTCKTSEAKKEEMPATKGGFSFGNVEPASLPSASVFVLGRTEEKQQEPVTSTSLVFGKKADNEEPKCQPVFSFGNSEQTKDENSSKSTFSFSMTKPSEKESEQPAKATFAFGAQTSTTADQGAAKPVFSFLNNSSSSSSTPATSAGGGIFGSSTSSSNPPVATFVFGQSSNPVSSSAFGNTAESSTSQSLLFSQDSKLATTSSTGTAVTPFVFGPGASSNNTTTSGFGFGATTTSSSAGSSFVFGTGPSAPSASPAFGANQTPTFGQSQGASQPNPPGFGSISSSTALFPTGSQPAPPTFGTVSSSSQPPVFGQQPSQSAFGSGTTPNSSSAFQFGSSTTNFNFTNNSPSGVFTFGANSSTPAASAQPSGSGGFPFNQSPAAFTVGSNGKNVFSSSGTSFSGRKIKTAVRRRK
UniProt P52948, residues 1-880: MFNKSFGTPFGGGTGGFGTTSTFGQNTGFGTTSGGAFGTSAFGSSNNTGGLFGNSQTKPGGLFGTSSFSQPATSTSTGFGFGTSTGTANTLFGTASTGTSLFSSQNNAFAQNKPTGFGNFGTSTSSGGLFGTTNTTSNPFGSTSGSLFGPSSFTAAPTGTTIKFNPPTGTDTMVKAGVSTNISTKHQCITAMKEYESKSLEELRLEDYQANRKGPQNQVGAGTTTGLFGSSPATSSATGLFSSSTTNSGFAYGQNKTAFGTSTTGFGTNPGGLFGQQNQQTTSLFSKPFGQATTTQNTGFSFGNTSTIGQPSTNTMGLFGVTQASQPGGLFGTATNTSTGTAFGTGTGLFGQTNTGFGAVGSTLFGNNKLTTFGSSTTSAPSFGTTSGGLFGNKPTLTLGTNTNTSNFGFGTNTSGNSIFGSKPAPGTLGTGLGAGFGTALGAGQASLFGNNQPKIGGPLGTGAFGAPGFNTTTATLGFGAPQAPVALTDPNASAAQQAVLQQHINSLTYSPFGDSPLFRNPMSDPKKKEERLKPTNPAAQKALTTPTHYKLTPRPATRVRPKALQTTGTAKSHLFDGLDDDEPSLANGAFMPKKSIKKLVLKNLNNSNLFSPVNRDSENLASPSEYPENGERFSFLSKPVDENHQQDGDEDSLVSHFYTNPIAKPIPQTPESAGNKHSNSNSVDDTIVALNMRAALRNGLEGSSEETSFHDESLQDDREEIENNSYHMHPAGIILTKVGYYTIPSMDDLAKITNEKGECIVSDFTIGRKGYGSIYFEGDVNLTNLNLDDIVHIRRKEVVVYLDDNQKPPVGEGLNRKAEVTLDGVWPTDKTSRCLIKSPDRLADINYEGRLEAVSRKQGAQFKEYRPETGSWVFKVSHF

Read-outs that look alike come from different tables or passages of the source. No constants are given. Whether binding was seen depends on the method and setting. In cells and extracts the contact can be indirect. Some binding calls cover weakened binding; strength is not graded here.

B1: AQR (protein, UniProt O60306 1-1485)
chain: MAAPAQPKKIVAPTVSQINAEFVTQLACKYWAPHIKKKSPFDIKVIEDIYEKEIVKSRFAIRKIMLLEFSQYLENYLWMNYSPEVSSKAYLMSICCMVNEKFRENVPAWEIFKKKPDHFPFFFKHILKAALAETDGEFSLHEQTVLLLFLDHCFNSLEVDLIRSQVQQLISLPMWMGLQLARLELELKKTPKLRKFWNLIKKNDEKMDPEAREQAYQERRFLSQLIQKFISVLKSVPLSEPVTMDKVHYCERFIELMIDLEALLPTRRWFNTILDDSHLLVHCYLSNLVRREEDGHLFSQLLDMLKFYTGFEINDQTGNALTENEMTTIHYDRITSLQRAAFAHFPELYDFALSNVAEVDTRESLVKFFGPLSSNTLHQVASYLCLLPTLPKNEDTTFDKEFLLELLVSRHERRISQIQQLNQMPLYPTEKIIWDENIVPTEYYSGEGCLALPKLNLQFLTLHDYLLRNFNLFRLESTYEIRQDIEDSVSRMKPWQSEYGGVVFGGWARMAQPIVAFTVVEVAKPNIGENWPTRVRADVTINLNVRDHIKDEWEGLRKHDVCFLITVRPTKPYGTKFDRRRPFIEQVGLVYVRGCEIQGMLDDKGRVIEDGPEPRPNLRGESRTFRVFLDPNQYQQDMTNTIQNGAEDVYETFNIIMRRKPKENNFKAVLETIRNLMNTDCVVPDWLHDIILGYGDPSSAHYSKMPNQIATLDFNDTFLSIEHLKASFPGHNVKVTVEDPALQIPPFRITFPVRSGKGKKRKDADVEDEDTEEAKTLIVEPHVIPNRGPYPYNQPKRNTIQFTHTQIEAIRAGMQPGLTMVVGPPGTGKTDVAVQIISNIYHNFPEQRTLIVTHSNQALNQLFEKIMALDIDERHLLRLGHGEEELETEKDFSRYGRVNYVLARRIELLEEVKRLQKSLGVPGDASYTCETAGYFFLYQVMSRWEEYISKVKNKGSTLPDVTEVSTFFPFHEYFANAPQPIFKGRSYEEDMEIAEGCFRHIKKIFTQLEEFRASELLRSGLDRSKYLLVKEAKIIAMTCTHAALKRHDLVKLGFKYDNILMEEAAQILEIETFIPLLLQNPQDGFSRLKRWIMIGDHHQLPPVIKNMAFQKYSNMEQSLFTRFVRVGVPTVDLDAQGRARASLCNLYNWRYKNLGNLPHVQLLPEFSTANAGLLYDFQLINVEDFQGVGESEPNPYFYQNLGEAEYVVALFMYMCLLGYPADKISILTTYNGQKHLIRDIINRRCGNNPLIGRPNKVTTVDRFQGQQNDYILLSLVRTRAVGHLRDVRRLVVAMSRARLGLYIFARVSLFQNCFELTPAFSQLTARPLHLHIIPTEPFPTTRKNGERPSHEVQIIKNMPQMANFVYNMYMHLIQTTHHYHQTLLQLPPAMVEEGEEVQNQETELETEEEAMTVQADIIPSPTDTSCRQETPAFQTDTTPSETGATSTPEAIPALSETTPTVVGAVSAPAEANTPQDATSAPEETK
On to B1, for which the binding result in experiment [1], in experiment [2], in experiment [3] and in experiment [4] was “binds” in each case.

B2: XAB2 (protein, UniProt Q9HCS7 1-855)
chain: MVVMARLSRPERPDLVFEEEDLPYEEEIMRNQFSVKCWLRYIEFKQGAPKPRLNQLYERALKLLPCSYKLWYRYLKARRAQVKHRCVTDPAYEDVNNCHERAFVFMHKMPRLWLDYCQFLMDQGRVTHTRRTFDRALRALPITQHSRIWPLYLRFLRSHPLPETAVRGYRRFLKLSPESAEEYIEYLKSSDRLDEAAQRLATVVNDERFVSKAGKSNYQLWHELCDLISQNPDKVQSLNVDAIIRGGLTRFTDQLGKLWCSLADYYIRSGHFEKARDVYEEAIRTVMTVRDFTQVFDSYAQFEESMIAAKMETASELGREEEDDVDLELRLARFEQLISRRPLLLNSVLLRQNPHHVHEWHKRVALHQGRPREIINTYTEAVQTVDPFKATGKPHTLWVAFAKFYEDNGQLDDARVILEKATKVNFKQVDDLASVWCQCGELELRHENYDEALRLLRKATALPARRAEYFDGSEPVQNRVYKSLKVWSMLADLEESLGTFQSTKAVYDRILDLRIATPQIVINYAMFLEEHKYFEESFKAYERGISLFKWPNVSDIWSTYLTKFIARYGGRKLERARDLFEQALDGCPPKYAKTLYLLYAQLEEEWGLARHAMAVYERATRAVEPAQQYDMFNIYIKRAAEIYGVTHTRGIYQKAIEVLSDEHAREMCLRFADMECKLGEIDRARAIYSFCSQICDPRTTGAFWQTWKDFEVRHGNEDTIKEMLRIRRSVQATYNTQVNFMASQMLKVSGSATGTVSDLAPGQSGMDDMKLLEQRAEQLAAEAERDQPLRAQSKILFVRSDASREELAELAQQVNPEEIQLGEDEDEDEMDLEPNEVRLEQQSVPAAVFGSLKED
Regarding B2, the binding result in experiment [1] and in experiment [4] was “binds” in each case.

B3: ISY1 (protein, UniProt Q9ULR0 1-285)
chain: MARNAEKAMTALARFRQAQLEEGKVKERRPFLASECTELPKAEKWRRQIIGEISKKVAQIQNAGLGEFRIRDLNDEINKLLREKGHWEVRIKELGGPDYGKVGPKMLDHEGKEVPGNRGYKYFGAAKDLPGVRELFEKEPLPPPRKTRAELMKAIDFEYYGYLDEDDGVIVPLEQEYEKKLRAELVEKWKAEREARLARGEKEEEEEEEEEINIYAVTEEESDEEGSQEKGGDDSQQKFIAHVPVPSQQEIEEALVRRKKMELLQKYASETLQAQSEEARRLLGY
For the molecule B3, in experiment [4], the binding entry is listed as “binds”.

Source of the values: publication doi:10.1101/2024.09.30.615666.
